Reference: the supplement of paper PMC4604168 (melanoma cell lines)
The other results are listed elsewhere or left out. Repeats are few or missing, and single values can be far off.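 Cells were imaged in 1,536-well plates, and nuclei stained with an antibody against cleaved PARP were counted against all DNA-stained nuclei to give the apoptosis fraction. Screening doses were chosen to leave most cells alive, and resting and induced cleaved-PARP levels differ strongly between cell lines.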

What follows are compounds tested on WM451Lu (assay: cleaved PARP positive nuclei fraction relative to DMSO control; melanoma cells; higher = more apoptosis). Details: library dose: low library concentration; 72 h.

Compound | cleaved PARP positive nuclei fraction [%]
CN1CCN(c2ccc3nc(-c4c(N)c5c(F)cccc5[nH]c4=O)[nH]c3c2)CC1 [Dovitinib] + COc1cc2c(Oc3ccc4[nH]c(C)cc4c3F)ncnc2cc1OCCCN1CCCC1 [cediranib] (first compound 0.1 µM, partner dose 0.4 µM) | 49.3
CC(C)C[C@H](NC(=O)[C@H](Cc1ccccc1)NC(=O)c1cnccn1)B(O)O [Bortezomib] + CC(C)CCN1c2nc(Nc3cc(F)c(O)c(F)c3)ncc2N(C)C(=O)C1C [BID1870] (first compound 0.001 µM, partner dose 0.2 µM) | 110
O=C(O)c1ccc2c(c1)nc(Nc1cccc(Cl)c1)c1ccncc12 + NCC(=O)Nc1ccc(-n2nc(C(F)(F)F)cc2-c2ccc3c(ccc4ccccc43)c2)cc1 [OSU03012] (first compound 0.4 µM, partner dose 1 µM) | 1600
Nc1ncn([C@H]2C[C@H](O)[C@@H](CO)O2)c(=O)n1 [decitabine] + Cn1cc(/C=C2\C(=O)Nc3cccnc32)c2ccccc21 [GW441756] (first compound 0.1 µM, partner dose 0.4 µM) | 62.1
CNC(=O)c1cc(Oc2ccc(NC(=O)Nc3ccc(Cl)c(C(F)(F)F)c3)cc2)ccn1 [sorafenib] + Oc1nc(-c2ccc(C(F)(F)F)cc2)nc2c1CSCC2 [XAV939] (first compound 0.4 µM, partner dose 2 µM) | 52.3
O=C(O)[C@@H]1[O][Sb](=[O])([O][Sb]2(=[O])[O][C@H]([C@H](O)CO)[C@H](O)[C@H](C(=O)O)[O]2)[O][C@H]([C@H](O)CO)[C@@H]1O (stereo not given in full) [stibogluconate] + C=CCn1c(=O)c2cnc(Nc3ccc(N4CCN(C)CC4)cc3)nc2n1-c1cccc(C(C)(C)O)n1 [MK1775] (first compound 2 µM, partner dose 0.02 µM) | 23.3
CC(C)C[C@H](NC(=O)[C@H](Cc1ccccc1)NC(=O)c1cnccn1)B(O)O [Bortezomib] + O=c1cc(-c2cccc3c2Sc2ccccc2S3)oc(N2CCOCC2)c1 [KU55933] (first compound 0.001 µM, partner dose 1 µM) | 180
Cn1c(=O)n(-c2ccc(C(C)(C)C#N)cc2)c2c3cc(-c4cnc5ccccc5c4)ccc3ncc21 + OCCn1cc(-c2cnc3nnn(Cc4ccc5ncccc5c4)c3n2)cn1 [PF04217903] (first compound 0.004 µM, partner dose 1 µM) | 130
Cn1c(=O)n(-c2ccc(C(C)(C)C#N)cc2)c2c3cc(-c4cnc5ccccc5c4)ccc3ncc21 + c1cc(-c2cnn3cc(-c4ccc(OCCN5CCCCC5)cc4)cnc23)ccn1 [Dorsomorphin] (first compound 0.004 µM, partner dose 0.4 µM) | 145
O=C(O)c1ccc2c(c1)nc(Nc1cccc(Cl)c1)c1ccncc12 + COc1ccc(-c2ccc3c(N4CCOCC4)nc(N4C[C@@H](C)O[C@@H](C)C4)nc3n2)cc1CO [KU0063794] (first compound 0.4 µM, partner dose 0.02 µM) | 78.8
